{"source": "paper doi:10.1101/2023.06.30.547269", "target": "T1, PHYTOCHROME … FACTOR 4 (PIF4), yeast two-hybrid fusion (Arabidopsis thaliana) (UniProt Q8W2F3)", "T1 sequence": "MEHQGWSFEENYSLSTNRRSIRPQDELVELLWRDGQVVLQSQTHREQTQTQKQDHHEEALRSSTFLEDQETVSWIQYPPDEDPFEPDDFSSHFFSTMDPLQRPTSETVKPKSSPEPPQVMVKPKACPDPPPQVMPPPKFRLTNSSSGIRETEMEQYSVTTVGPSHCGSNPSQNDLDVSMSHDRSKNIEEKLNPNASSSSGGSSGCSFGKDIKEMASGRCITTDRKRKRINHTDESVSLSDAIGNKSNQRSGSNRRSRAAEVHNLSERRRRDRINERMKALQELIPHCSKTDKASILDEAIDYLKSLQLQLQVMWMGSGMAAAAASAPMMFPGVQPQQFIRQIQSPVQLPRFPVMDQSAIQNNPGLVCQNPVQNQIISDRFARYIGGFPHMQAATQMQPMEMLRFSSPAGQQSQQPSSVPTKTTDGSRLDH", "assay": "two-hybrid", "note": "No constants are given. Whether binding was seen depends on the method and setting. Sequences can lack the tags named with a protein.", "data": [{"binder": "MPK7, yeast two-hybrid fusion (enzyme, UniProt Q39027 1-368) MAMLVEPPNGIKQQGKHYYSMWQTLFEIDTKYVPIKPIGRGAYGVVCSSINRETNERVAIKKIHNVFENRVDALRTLRELKLLRHVRHENVIALKDVMLPANRSSFKDVYLVYELMDTDLHQIIKSSQSLSDDHCKYFLFQLLRGLKYLHSANILHRDLKPGNLLVNANCDLKICDFGLARTSQGNEQFMTEYVVTRWYRAPELLLCCDNYGTSIDVWSVGCIFAEILGRKPIFPGTECLNQLKLIINVVGSQQESDIRFIDNPKARRFIKSLPYSRGTHLSNLYPQANPLAIDLLQRMLVFDPTKRISVTDALLHPYMAGLFDPGSNPPAHVPISLDIDENMEEPVIREMMWNEMLYYHPEAEISNA", "values": [{"measurement": "binding", "result": "no binding"}]}]}
